The supplement of paper PMC10849652
Some of the results follow.

Protein sequences, listed by entry. Tags and fused reporters are not part of them. Lines headed by an entry give the natural chain unless they say otherwise; changes in a name come on top.
UniProt Q96EB6: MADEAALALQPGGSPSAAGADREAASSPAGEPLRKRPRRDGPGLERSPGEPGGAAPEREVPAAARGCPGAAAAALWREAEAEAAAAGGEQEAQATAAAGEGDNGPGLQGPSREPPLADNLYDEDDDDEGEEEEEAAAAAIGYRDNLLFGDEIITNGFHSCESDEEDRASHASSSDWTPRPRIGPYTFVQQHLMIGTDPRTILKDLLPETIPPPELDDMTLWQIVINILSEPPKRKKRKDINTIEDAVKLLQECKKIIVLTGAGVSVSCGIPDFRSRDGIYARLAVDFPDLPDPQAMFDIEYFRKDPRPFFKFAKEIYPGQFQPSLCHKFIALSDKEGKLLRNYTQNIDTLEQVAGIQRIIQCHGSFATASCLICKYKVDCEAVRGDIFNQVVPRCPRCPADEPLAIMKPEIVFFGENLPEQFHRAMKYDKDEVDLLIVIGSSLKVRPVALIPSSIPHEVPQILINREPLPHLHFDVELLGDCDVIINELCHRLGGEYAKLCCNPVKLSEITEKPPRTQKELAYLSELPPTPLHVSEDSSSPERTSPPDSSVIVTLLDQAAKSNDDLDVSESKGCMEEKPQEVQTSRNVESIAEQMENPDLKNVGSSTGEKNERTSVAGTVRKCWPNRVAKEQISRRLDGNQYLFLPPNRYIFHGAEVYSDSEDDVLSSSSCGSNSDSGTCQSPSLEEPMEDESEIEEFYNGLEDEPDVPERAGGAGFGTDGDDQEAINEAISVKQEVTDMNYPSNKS
UniProt P23246: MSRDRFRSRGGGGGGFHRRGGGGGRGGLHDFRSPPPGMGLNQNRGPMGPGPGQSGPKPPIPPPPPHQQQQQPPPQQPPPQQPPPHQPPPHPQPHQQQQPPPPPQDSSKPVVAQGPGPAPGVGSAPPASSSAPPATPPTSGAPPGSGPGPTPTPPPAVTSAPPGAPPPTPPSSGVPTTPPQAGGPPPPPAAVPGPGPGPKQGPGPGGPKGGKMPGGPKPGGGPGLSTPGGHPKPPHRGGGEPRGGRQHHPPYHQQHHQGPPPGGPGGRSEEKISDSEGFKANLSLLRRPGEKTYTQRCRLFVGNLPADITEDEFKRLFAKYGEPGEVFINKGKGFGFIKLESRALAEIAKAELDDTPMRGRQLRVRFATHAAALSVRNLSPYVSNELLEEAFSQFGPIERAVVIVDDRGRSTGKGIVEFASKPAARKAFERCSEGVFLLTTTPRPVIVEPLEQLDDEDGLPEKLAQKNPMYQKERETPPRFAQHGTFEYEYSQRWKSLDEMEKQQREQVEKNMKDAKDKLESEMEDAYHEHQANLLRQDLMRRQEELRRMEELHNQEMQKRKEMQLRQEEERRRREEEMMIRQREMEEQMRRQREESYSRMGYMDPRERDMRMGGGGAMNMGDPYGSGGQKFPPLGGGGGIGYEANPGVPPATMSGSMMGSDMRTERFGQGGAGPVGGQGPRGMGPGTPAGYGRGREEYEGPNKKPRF
UniProt O60239: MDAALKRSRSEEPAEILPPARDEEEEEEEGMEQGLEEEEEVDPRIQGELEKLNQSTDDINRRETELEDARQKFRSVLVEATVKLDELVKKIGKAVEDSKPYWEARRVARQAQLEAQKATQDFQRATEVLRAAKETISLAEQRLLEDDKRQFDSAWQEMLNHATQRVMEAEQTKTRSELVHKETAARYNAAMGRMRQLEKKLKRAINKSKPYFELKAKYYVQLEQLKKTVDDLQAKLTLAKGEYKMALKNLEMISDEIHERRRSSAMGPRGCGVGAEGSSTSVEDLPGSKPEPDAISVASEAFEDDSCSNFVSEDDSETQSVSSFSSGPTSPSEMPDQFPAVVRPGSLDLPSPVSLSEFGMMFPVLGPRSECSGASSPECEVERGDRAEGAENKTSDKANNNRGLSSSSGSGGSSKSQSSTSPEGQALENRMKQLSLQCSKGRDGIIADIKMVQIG
UniProt P34896: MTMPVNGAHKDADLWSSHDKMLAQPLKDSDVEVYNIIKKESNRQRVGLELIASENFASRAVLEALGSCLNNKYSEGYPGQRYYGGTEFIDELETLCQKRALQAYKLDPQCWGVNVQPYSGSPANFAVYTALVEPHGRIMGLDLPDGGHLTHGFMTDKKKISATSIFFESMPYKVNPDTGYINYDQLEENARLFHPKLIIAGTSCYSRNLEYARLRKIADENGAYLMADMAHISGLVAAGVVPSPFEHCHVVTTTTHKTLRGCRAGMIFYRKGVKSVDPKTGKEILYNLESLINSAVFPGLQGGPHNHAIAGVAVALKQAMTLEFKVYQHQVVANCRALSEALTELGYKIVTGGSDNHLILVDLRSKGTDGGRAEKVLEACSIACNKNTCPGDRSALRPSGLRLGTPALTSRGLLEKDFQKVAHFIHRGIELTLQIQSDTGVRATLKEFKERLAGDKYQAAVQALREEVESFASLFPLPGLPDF
UniProt Q9NP31, whole entry, looked up: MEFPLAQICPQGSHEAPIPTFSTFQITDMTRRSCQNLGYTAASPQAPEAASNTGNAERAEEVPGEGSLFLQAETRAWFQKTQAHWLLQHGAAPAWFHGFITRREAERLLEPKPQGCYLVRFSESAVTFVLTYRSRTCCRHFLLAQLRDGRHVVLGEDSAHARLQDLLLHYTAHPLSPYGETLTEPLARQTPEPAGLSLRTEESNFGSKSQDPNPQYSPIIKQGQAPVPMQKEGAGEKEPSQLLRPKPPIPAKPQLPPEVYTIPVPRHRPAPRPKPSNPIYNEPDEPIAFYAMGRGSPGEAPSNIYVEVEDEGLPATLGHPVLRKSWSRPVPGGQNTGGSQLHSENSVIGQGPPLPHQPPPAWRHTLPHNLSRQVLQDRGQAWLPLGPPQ
UniProt O95562: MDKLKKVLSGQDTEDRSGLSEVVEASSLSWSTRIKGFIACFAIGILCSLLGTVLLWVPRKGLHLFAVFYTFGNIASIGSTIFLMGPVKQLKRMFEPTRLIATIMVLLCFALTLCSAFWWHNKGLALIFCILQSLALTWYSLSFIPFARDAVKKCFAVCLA
UniProt Q14493, whole entry, looked up: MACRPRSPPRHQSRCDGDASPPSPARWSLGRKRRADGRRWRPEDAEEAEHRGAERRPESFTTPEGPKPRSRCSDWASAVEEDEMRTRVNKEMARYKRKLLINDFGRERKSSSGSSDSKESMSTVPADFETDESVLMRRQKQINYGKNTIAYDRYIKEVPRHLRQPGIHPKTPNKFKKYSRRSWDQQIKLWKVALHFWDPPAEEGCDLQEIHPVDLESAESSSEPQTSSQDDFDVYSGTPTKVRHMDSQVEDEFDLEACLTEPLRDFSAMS
UniProt P34897: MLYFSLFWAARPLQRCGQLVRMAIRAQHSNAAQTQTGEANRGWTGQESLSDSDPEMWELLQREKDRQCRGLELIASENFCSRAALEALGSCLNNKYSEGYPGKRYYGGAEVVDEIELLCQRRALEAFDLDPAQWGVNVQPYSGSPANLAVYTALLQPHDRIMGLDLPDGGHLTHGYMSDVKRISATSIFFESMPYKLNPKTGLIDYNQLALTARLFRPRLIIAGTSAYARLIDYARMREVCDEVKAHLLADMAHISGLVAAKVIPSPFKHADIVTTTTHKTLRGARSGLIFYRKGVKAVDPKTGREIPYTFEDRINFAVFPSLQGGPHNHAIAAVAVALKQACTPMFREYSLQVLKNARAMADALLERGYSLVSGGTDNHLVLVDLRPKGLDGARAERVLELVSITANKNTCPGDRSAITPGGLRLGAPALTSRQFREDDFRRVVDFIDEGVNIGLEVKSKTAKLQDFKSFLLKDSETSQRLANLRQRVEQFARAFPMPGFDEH
UniProt O75563, whole entry, looked up: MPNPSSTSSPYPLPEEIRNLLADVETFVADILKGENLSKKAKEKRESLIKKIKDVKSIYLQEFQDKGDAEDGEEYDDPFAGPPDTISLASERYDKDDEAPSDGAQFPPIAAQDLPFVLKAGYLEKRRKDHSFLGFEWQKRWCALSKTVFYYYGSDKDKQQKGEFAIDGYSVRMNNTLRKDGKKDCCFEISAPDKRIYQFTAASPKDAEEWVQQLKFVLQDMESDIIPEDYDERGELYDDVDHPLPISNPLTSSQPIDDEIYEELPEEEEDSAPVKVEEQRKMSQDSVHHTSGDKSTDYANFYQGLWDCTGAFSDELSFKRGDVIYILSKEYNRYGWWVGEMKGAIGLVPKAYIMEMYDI
UniProt Q9H299: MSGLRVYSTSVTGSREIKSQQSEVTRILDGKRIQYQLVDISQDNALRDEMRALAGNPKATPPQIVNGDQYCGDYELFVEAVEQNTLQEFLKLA
UniProt Q8IXJ6: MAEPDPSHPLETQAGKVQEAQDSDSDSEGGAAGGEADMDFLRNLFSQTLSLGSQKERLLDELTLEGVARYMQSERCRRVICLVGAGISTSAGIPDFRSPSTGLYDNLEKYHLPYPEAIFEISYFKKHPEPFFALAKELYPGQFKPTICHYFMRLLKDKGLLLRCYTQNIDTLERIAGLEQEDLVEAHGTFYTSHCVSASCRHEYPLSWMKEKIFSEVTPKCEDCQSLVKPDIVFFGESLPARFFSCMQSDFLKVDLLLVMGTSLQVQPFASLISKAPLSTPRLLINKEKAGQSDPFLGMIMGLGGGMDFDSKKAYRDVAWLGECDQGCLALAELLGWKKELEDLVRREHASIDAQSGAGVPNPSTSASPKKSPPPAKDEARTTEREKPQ
UniProt Q6P4A7: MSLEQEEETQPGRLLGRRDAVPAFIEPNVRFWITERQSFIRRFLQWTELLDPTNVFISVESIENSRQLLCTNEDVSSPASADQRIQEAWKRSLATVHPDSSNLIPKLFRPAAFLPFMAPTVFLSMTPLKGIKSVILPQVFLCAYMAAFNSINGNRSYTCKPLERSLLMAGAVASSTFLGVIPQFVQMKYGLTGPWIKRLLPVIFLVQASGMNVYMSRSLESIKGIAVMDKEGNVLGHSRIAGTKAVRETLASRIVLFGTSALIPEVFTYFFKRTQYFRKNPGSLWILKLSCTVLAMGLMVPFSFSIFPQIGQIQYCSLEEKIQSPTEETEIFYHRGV
UniProt Q53H47: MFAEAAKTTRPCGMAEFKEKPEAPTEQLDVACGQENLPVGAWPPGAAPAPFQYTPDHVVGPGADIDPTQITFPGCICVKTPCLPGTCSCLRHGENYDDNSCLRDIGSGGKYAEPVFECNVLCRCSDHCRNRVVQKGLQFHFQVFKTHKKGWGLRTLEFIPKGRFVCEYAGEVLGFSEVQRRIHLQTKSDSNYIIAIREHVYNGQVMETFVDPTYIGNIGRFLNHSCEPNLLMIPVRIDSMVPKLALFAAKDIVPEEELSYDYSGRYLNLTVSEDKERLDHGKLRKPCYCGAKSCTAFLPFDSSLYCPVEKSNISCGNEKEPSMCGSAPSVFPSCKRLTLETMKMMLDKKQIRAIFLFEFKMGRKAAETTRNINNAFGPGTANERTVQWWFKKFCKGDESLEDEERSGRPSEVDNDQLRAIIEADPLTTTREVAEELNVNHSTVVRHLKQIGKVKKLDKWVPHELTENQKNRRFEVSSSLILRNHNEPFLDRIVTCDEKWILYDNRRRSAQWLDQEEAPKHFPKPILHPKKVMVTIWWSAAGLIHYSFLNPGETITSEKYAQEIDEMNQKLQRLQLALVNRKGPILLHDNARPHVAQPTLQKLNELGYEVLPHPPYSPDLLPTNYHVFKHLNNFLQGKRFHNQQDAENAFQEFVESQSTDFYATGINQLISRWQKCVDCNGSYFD
UniProt Q8WVK7: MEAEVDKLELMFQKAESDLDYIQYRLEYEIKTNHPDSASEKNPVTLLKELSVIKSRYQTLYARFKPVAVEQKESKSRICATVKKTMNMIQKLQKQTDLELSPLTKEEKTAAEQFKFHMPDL
UniProt Q15637: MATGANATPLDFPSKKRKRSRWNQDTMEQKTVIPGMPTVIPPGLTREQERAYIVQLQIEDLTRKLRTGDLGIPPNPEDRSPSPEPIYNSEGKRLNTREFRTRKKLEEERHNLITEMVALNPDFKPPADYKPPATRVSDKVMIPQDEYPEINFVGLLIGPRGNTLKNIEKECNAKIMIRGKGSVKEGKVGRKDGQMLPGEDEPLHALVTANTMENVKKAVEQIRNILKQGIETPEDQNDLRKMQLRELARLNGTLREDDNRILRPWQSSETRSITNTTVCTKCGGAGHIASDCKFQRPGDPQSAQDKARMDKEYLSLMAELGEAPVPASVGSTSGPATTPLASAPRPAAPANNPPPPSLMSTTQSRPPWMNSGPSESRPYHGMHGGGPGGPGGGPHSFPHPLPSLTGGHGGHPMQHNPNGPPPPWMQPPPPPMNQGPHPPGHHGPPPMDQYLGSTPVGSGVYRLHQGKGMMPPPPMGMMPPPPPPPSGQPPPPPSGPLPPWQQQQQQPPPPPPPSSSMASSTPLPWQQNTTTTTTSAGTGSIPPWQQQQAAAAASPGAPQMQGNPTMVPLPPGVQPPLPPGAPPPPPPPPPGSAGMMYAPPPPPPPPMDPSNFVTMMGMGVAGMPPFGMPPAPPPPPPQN
UniProt Q99720, whole entry, looked up: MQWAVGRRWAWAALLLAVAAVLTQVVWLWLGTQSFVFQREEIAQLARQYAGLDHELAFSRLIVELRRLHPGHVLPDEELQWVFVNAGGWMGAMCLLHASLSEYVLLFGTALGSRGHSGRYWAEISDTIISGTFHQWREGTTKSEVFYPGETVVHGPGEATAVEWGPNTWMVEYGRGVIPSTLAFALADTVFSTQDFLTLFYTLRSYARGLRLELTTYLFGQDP

Compound: C[C@H](C1=CC=C(C=C1)C(=O)NC2=C3C=CNC3=NC=C2)N
Experiment: log2 fold change, soluble protein after heating vs DMSO (PISA); higher = thermal stabilisation; K562 lysate, 10 uM; active = over 0.2 and 3.5 SD of the protein, either way, in both replicates (recomputed)
In short: (§1)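 K562 pellets were dounce-homogenised in PBS pH 7.4 containing 1 mM MgCl2, and the crude extract, at 1 mg/mL protein, was exposed to 10 μM compound for 30 min. Aliquots were heated for 3 min across 48°C-58°C, pooled, brought to 0.5% NP-40 at 4°C and spun at 21,000xg for 90 min, with the supernatant taken as soluble protein. TMTpro 16plex LC-MS/MS with equalised channel sums quantified that protein. Values are log-two fold changes in thermal stability relative to solvent controls, taken from duplicates.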

log2 fold change, inactive:
SERPINB6, A0A087X1N8 -0.011
SIRT1 (UniProt Q96EB6) 0.055
SFPQ (UniProt P23246) 0.021
SH3BP5 (UniProt O60239) 0.074
SHMT1 (UniProt P34896) -0.014
SH2D2A isoform 2 (UniProt Q9NP31) -0.068
SFT2D2 (UniProt O95562) 0.099
SLBP (UniProt Q14493) 0.084
SHMT2 (UniProt P34897) -0.009

Compound: C[C@H](Nc1ncnc2nc[nH]c12)c1cc2cccc(Cl)c2c(=O)n1-c1ccccc1 [duvelisib]
Experiment: as above
In short: as §1

log2 fold change, inactive:
SESN2 (UniProt P58004) 0.047
SLC11A2 isoform 3 (UniProt P49281) -0.025
SERPINH1 (UniProt P50454) -0.002
SKAP2 (UniProt O75563) -0.037
SH3BGRL3 (UniProt Q9H299) -0.032
SLAIN2 (UniProt Q9P270) -0.012
SH3BGRL2 (UniProt Q9UJC5) -0.007
SH3GL1 (UniProt Q99961) 0.023
SIRT5 (UniProt Q9NXA8) -0.023
SERBP1 (UniProt Q8NC51) -0.018
SFSWAP isoform 2 (UniProt Q12872) -0.024
SERPINB9 (UniProt P50453) -0.008
SIRT2 (UniProt Q8IXJ6) 0.013
SF3B1 (UniProt O75533) 0.005
SFXN4 (UniProt Q6P4A7) 0.056
SETMAR (UniProt Q53H47) 0.003
SH3BGR (UniProt P55822) 0.029
SERGEF (UniProt Q9UGK8) -0.036
SKA2 (UniProt Q8WVK7) -0.004
SF1 isoform 5 (UniProt Q15637) 0.021
SERF2 (UniProt P84101) 0.03
SIPA1 (UniProt Q96FS4) -0.001
SIGMAR1 (UniProt Q99720) 0.008
SERPINB6, A0A087X1N8 0.005
SIRT1 (UniProt Q96EB6) -0.02
SFPQ (UniProt P23246) -0.019
SH3BP5 (UniProt O60239) 0.031
SHMT1 (UniProt P34896) 0.02
SH2D2A isoform 2 (UniProt Q9NP31) 0.154
SFT2D2 (UniProt O95562) 0.077
SLBP (UniProt Q14493) -0.025
SHMT2 (UniProt P34897) 0.007

Compound: Cc1cc(Nc2cc(CN3CCOCC3)c3nc(C)c(Cc4ccc(Cl)cc4F)n3n2)n[nH]1 [gandotinib]
Experiment: as above
In short: as §1

log2 fold change, inactive:
SESN2 (UniProt P58004) 0.038
SLC11A2 isoform 3 (UniProt P49281) 0.033
SERPINH1 (UniProt P50454) 0.032
SKAP2 (UniProt O75563) 0.067
SH3BGRL3 (UniProt Q9H299) 0.026
SLAIN2 (UniProt Q9P270) 0.048
SH3BGRL2 (UniProt Q9UJC5) -0.116
SH3GL1 (UniProt Q99961) 0.009
SIRT5 (UniProt Q9NXA8) 0.007
SERBP1 (UniProt Q8NC51) -0.013
SFSWAP isoform 2 (UniProt Q12872) -0.089
SERPINB9 (UniProt P50453) -0.001
SIRT2 (UniProt Q8IXJ6) 0.074
SF3B1 (UniProt O75533) -0.024
SFXN4 (UniProt Q6P4A7) 0.031
SETMAR (UniProt Q53H47) 0.071
SH3BGR (UniProt P55822) 0.041
SERGEF (UniProt Q9UGK8) 0.008
SKA2 (UniProt Q8WVK7) -0.029
SF1 isoform 5 (UniProt Q15637) 0.066
SERF2 (UniProt P84101) 0.029
SIPA1 (UniProt Q96FS4) 0.024
SIGMAR1 (UniProt Q99720) 0.064
SERPINB6, A0A087X1N8 0.007
SIRT1 (UniProt Q96EB6) -0.05
SFPQ (UniProt P23246) -0.041
SH3BP5 (UniProt O60239) -0.002
SHMT1 (UniProt P34896) 0.015
SH2D2A isoform 2 (UniProt Q9NP31) 0.054
SFT2D2 (UniProt O95562) -0.048
SLBP (UniProt Q14493) -0.005
SHMT2 (UniProt P34897) 0.016
